From ChEMBL document CHEMBL3988442, “University of Dundee, Small-Polar-MMV Screening Library” (2021).

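Whole-cell assay for inhibitors of Mycobacterium tuberculosis growth, labelled Cornell in the record; the read-out is not stated. The concentration is filed as 10 mM, unlikely as a test dose, so the dose is not known. The record gives no direction; compounds strong in two other growth screens of this library score well above the rest, so higher reads as stronger inhibition. Of about 53,000 compounds tested this way, about 900 (1.7%) reached 50% or more in at least one test.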

Values are the deposited “Percent Effect”, in %.
The controls that fix the scale are not given in the record; negative values are as filed.
Compounds were drawn at random from those tested, without regard to their results.

| # | Compound | percent effect |
|---|---|---|
| 1 | `[H][C@]12CC[C@]([H])(C1)N(C(=O)c1cccnc1-c1cc(OC)ccc1F)C2` | -49.6 |
| 2 | `CC1CCCN(Cc2cccc(C(=O)Nc3nccs3)c2)C1` (stereo not given) | 0.9868 |
| 3 | `CN(C)C[C@H]1CC[C@@H](Cc2ccc3c(cnn3C)c2)O1` | 15.95 |
| 4 | `O=C(NCC1CC1)C12CC(CN1Cc1nccs1)C2` | 30.36 |
| 5 | `N#CCCn1cnc2c(Br)cc(Br)cc2c1=O` | -2.104 |
| 6 | `O=C(NCCO)Nc1ccc(Br)c(F)c1` | 23.32 |
| 7 | `CC(C)CN1CCC2(CCN(C(=O)c3ccc(F)cc3)CC2)C1=O` | 16.67 |
| 8 | `Cc1c[nH]c(C(=O)N2CCCC2c2ccc(C(=O)N3CCSCC3)s2)n1` (stereo not given) | 41.01 |
| 9 | `N#Cc1cn(CC(=O)NC2CC2)c2ccc(Br)cc2c1=O` | 19.88 |
| 10 | `C[C@@H]1CN(Cc2ccccn2)C[C@]12CCN(Cc1cccnc1)C2=O.O=C(O)C(F)(F)F.O=C(O)C(F)(F)F.O=C(O)C(F)(F)F` | 11.56 |
| 11 | `Cc1cc(=O)n(CC(=O)NCC2CCCO2)c(-c2cccc(Cl)c2)n1` (stereo not given) | 8.469 |
| 12 | `CN(Cc1ccco1)C(=O)Nc1ccc(=O)n(C)c1` | 16.62 |
| 13 | `CCN(CC1CCOC1)C(=O)c1nc(-c2ccco2)sc1C` (stereo not given) | 17.07 |
| 14 | `Cc1ncc(CC(=O)N2CCC3(CCC(=O)N(CCO)C3)CC2)c(=O)[nH]1` | 2.277 |
| 15 | `COc1cccc(OCCN2CC[C@@](O)(C3CCOCC3)[C@H](C)C2)c1` | 24.74 |
| 16 | `Cc1ccc(Cl)c2c1C1(NC(=O)c3cccnc3N1)C(=O)N2` (stereo not given) | 20.12 |
| 17 | `CC(C)n1ccnc1C1CCCN(c2ncccc2C(N)=O)C1` (stereo not given) | -7.456 |
| 18 | `CNc1cc(N2CCCC2CNCc2cccnc2)ncn1` (stereo not given) | -4.745 |
| 19 | `CN1CCc2c(C#N)c(NCc3ccncc3)n3cnnc3c2C1` | 26.85 |
| 20 | `O=C(O)C(F)(F)F.O=C1COC2(CCN(Cc3ccc(F)cc3)CC2)CN1` | 14.04 |
| 21 | `COCC1CC2(CCN(C(=O)c3ccc(C)nc3)CC2)CO1.O=C(O)C(F)(F)F` (stereo not given) | 10.99 |
| 22 | `Cc1ccc(Oc2ncccc2CNC(=O)C2COC(=O)N2)c(F)c1F` (stereo not given) | 18.7 |
| 23 | `CNC(=O)c1cc2c(nc1NCC(C)C)CCN(CC1CC1)CC2.O=C(O)C(F)(F)F.O=C(O)C(F)(F)F` | 11.92 |
| 24 | `CC(=O)N1CCC(N2CCN(Cc3ccc(C)o3)C(CCO)C2)CC1` (stereo not given) | 12.53 |
| 25 | `COc1ccc(-n2nc(C(C)C)nc2COC(C)C)cc1` | -13.37 |
| 26 | `CCOc1ccc(NC(=O)N(CCC#N)Cc2ccccn2)cc1F` | -24.78 |
| 27 | `O=C(O)C(F)(F)F.O=C(O)C(F)(F)F.c1cc(-c2ccc3nc(C4CCN(CC5CC5)CC4)nn3c2)ccn1` | -13.08 |
| 28 | `CC(C)OCCC(=O)N(C)c1ccc(F)c(Cl)c1` | 3.797 |
| 29 | `CCSC1(CNc2ncc(Br)cn2)CCOCC1` | 19.1 |
| 30 | `COCCNC(=O)c1nc2c(s1)CCCN2Cc1ccccc1` | -16.03 |
| 31 | `CCS(=O)(=O)NC(CCSC)C(=O)Nc1cccc(C)c1C` (stereo not given) | 4.992 |
| 32 | `CN(Cc1noc(C(C)(C)C)n1)Cc1ccccc1N1CCCC1` | 14.84 |
| 33 | `CC(C)NC(=O)N1CCC2(CC1)CCn1c(C3CC3)cnc12` | -32.42 |
| 34 | `Cc1cc(C(=O)N2CCC(n3nc(C)cc3C)C2)c2ccc(F)cc2n1` (stereo not given) | 24.57 |
| 35 | `O=C(O)C(F)(F)F.[H][C@@]12OCCN(C(=O)C3=CCCCC3)[C@@]1([H])CC[C@H]2Oc1ccccn1` | 7.937 |
| 36 | `Cc1ccoc1-c1nnc(CN2CCCC(Cn3cncn3)C2)o1` (stereo not given) | 13.97 |
| 37 | `CCN(C)C(=O)c1ccc(N(C)Cc2cc(-c3ccncc3)no2)nc1` | 10.09 |
| 38 | `OC1(c2ccccc2F)CCN(Cc2ccccc2N2CCCC2)CC1` | 4.488 |
| 39 | `Cc1noc(C)c1CNC(=O)c1cn(CCC2CCCCN2)nn1` (stereo not given) | -15.04 |
| 40 | `CCS(=O)(=O)c1ccc2oc([C@H]3CCN(CC4CCCCC4)C3)nc2c1` | -10.29 |
| 41 | `CSc1cccc(CN2CCn3nc(CNC(C)=O)cc3C2)c1` | 6.638 |
| 42 | `O=C(Cn1ccc(-c2ccccc2)n1)N1CCN(C(=O)C2CC2)CC1` | 4.932 |
| 43 | `CCc1nc(C)c([C@H]2CN(C)C[C@@H]2C(=O)Nc2ccc(OC)nc2)[nH]1` | -40.36 |
| 44 | `O=c1c2cnc(N3CCCC3)nc2ccn1-c1cccc(C(F)(F)F)c1` | 25.95 |
| 45 | `CN(C)C(=O)c1ccc(CNc2c(Cl)cccc2C#N)cc1` | 34.49 |
| 46 | `CC(C)NC(=O)N1CCN(S(C)(=O)=O)CC2(CNC(=O)C2)C1` (stereo not given) | 11.62 |
| 47 | `COCC(=O)N1CCc2ccc(=O)n(Cc3csc(C)n3)c2CC1.O=C(O)C(F)(F)F` | 0.9079 |
| 48 | `O=C(N[C@@H]1CCC[C@@H](N2CCOCC2)[C@@H]1O)c1cc2ccccc2[nH]1` | -21.99 |
| 49 | `CCS(=O)(=O)NCc1cc(Br)c(OC)c(OC)c1` | 9.689 |
| 50 | `CCc1nccn1C1CCCN(C(=O)c2cnc3onc(C)c3c2)C1` (stereo not given) | -61.3 |
| 51 | `O=C(O)C(F)(F)F.c1ccc(N2CCCC3(CCN(Cc4cccs4)C3)C2)nc1` (stereo not given) | 13.21 |
| 52 | `CCN1CC(COC(=O)c2cc(Br)ccc2F)CC1=O` (stereo not given) | 3.885 |
| 53 | `CC(c1nc(C2CC2)no1)N1CCN(Cc2ccsc2)CC1` (stereo not given) | 23.43 |
| 54 | `CC(=O)N[C@@H]1CN(C2CCN(c3cccc(Cl)c3)CC2)C[C@H]1C(C)C` | 62.82 |
| 55 | `CCS(=O)(=O)N1CCCC(c2ccnc(N(C)C)c2)C1` (stereo not given) | 3.156 |
| 56 | `CCNc1cc2c(nn1)CCN(C(=O)c1cc3ccccc3o1)C2` | -32.05 |
| 57 | `CCNC(=O)N1CCC(c2ccccc2)C1` (stereo not given) | 32.97 |
| 58 | `COc1ccccc1CN1CCc2c(nc(-c3ccccn3)[nH]c2=O)C1` | 47.68 |
| 59 | `Cc1cc(N2CCC(Cc3cccnc3)CC2)ncn1` | -11.76 |
| 60 | `CC(C)(C)c1nnc(CN2CCN(C(=O)N3CCCCC3)CC2)o1` | -15.39 |
| 61 | `CCc1nc(CCn2cc(-c3nccn3C)nn2)no1` | -1.572 |
| 62 | `COC(=O)C(O)C1CCN(CCc2ccccn2)CC1` (stereo not given) | 7.413 |
| 63 | `CNc1nc(N2CCN(C)C(CCO)C2)nc2c1CCC2` (stereo not given) | -1.725 |
| 64 | `COCCN(Cc1ccoc1)C(=O)CSc1ccc(F)cc1` | 8.731 |
| 65 | `O=C(c1ccsc1)N1CCc2c(CNc3nccs3)n[nH]c2C1` | 16.14 |
| 66 | `CCn1nc2c(cc1=O)CN(Cc1nc(-c3ccccn3)no1)CC2` | 1.973 |
| 67 | `CCN(CC)CC1CN(Cc2c(C)noc2C)Cc2nccn2C1` (stereo not given) | 4.758 |
| 68 | `CCc1c(C(=O)NCC(=O)OCC2CC2)cnn1-c1ccc(C)cc1` | 26.09 |
| 69 | `OC1(CN2CCCC2)COCCN(c2noc(-c3ccccc3)n2)C1` (stereo not given) | -2.648 |
| 70 | `CN(C(=O)CN1CCCC1Cc1ccccc1)c1ccccc1` (stereo not given) | 12.6 |
| 71 | `CC[C@@H]1N(CC2CCOCC2)CCC[C@]12CCC(=O)N2.O=C(O)C(F)(F)F` | 20.63 |
| 72 | `O=C(O)C(F)(F)F.[H][C@@]12CCN(c3nnc(C)s3)C[C@@]1([H])O[C@@H](C(=O)N(C)C)C2` | 21.37 |
| 73 | `CC(O)(CNC(=O)NCCc1ccc2c(c1)CCO2)c1ccccc1` (stereo not given) | -26.31 |
| 74 | `CCCC(C)(C)NC(=O)c1ccc(CC2CC(=O)NC2=O)cc1` (stereo not given) | 2.569 |
| 75 | `Cl.[H][C@@]12C[C@@H](C(=O)NC(C)C)O[C@]1([H])CCN2` | -3.116 |
| 76 | `O=C(NC1CC1)N1CCn2c(Cn3cccn3)cnc2C1.O=C(O)C(F)(F)F` | 38.79 |
| 77 | `Cc1ccc(OCC(=O)NS(=O)(=O)c2c(C)noc2C)cc1C` | -18.04 |
| 78 | `O=C(CN1CCCC(c2ccn[nH]2)C1)Nc1nc2c(s1)CCC2` (stereo not given) | 30.36 |
| 79 | `NC(=O)CN1CCC(C(=O)NCCc2nc(-c3ccccc3)cs2)CC1` | -10.45 |
| 80 | `O=C(CCc1ccsc1)N1CCCC(n2cncn2)C1` (stereo not given) | 0.6136 |
| 81 | `CC(C)CC(NC(=O)c1ccn(C)c(=O)c1)c1ccccc1` (stereo not given) | -47.45 |
| 82 | `CSc1ccc(NC(=O)NCc2nncn2C2CC2)cc1F` | 0.3023 |
| 83 | `COc1ccc(C(=O)NCc2ccco2)nn1` | 37.69 |
| 84 | `CCC1CN(CC(=O)N2CCCC2)CCN1CCOC` (stereo not given) | -33.12 |
| 85 | `COCCN(C)C[C@@H]1CN(C(=O)c2ccc(C)c(Cl)c2)C[C@@H]1CO` | 16.67 |
| 86 | `Cn1nccc1C(=O)N1CCCC1c1[nH]ncc1C(N)=O` (stereo not given) | -20.83 |
| 87 | `Cc1nc(CN(C)C)cc(N2CCCC(COc3ccc(F)cc3)C2)n1` (stereo not given) | 17.89 |
| 88 | `Cc1cccc(C)c1OCC(=O)NC(C)c1nnc2n1CCC2` (stereo not given) | 7.039 |
| 89 | `CNC(=O)c1ccc(CN2CCN(C3=NCC(C)(C)S3)CC2)cc1` | -10.64 |
| 90 | `N#Cc1ccc(N2CCN(C(=O)c3cc(C4CC4)[nH]n3)CC2)c(F)c1` | 15.89 |
| 91 | `Cc1cc(-c2cnc(N3CCC(O)CC3)nc2C(C)C)on1` | -1.708 |

Some entries from above, unchanged:

- CCC1CN(CC(=O)N2CCCC2)CCN1CCOC (stereo not given) | -33.12%
- O=C(NCCO)Nc1ccc(Br)c(F)c1 | 23.32%
- O=C(Cn1ccc(-c2ccccc2)n1)N1CCN(C(=O)C2CC2)CC1 | 4.932%
- CN(Cc1noc(C(C)(C)C)n1)Cc1ccccc1N1CCCC1 | 14.84%
- O=C(N[C@@H]1CCC[C@@H](N2CCOCC2)[C@@H]1O)c1cc2ccccc2[nH]1 | -21.99%
- CCNc1cc2c(nn1)CCN(C(=O)c1cc3ccccc3o1)C2 | -32.05%